Results deposited as PubChem BioAssay AID602196 (INSERM, 2012)
This is an unselected part of about 23,000 deposited reagents. Over the whole deposit, 455 (2%) are marked active. 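Active includes both protection and sensitisation; some change values fall well beyond the stated -50 to +50 range.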 Not all columns of the deposit are shown. Not stated in the record: the amount of reagent.

Assay: 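Knock-downs that protect lung cancer cells from cisplatin or sensitise them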
Cells: human A549 lung cancer cells
Reagents: siRNA pair against human genes
Timing: 48 h transfection before cisplatin; time from cisplatin to read-out not stated
Challenge: cisplatin at a dose killing half of control-siRNA cells; exact dose and duration not given
Detection: 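Cisplatin cell death as a shift from the 50% death seen with control siRNA; siRNAs toxic or growth-blocking alone scored 0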
Scale: two-siRNA summed score (-2 to +2): higher = both siRNAs protect from cisplatin killing; -2 means both sensitise; mean protection from cisplatin (shift in death) and protection from cisplatin (shift in death), siRNA C: higher = protection from cisplatin killing
Active means: 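siRNAs harmful alone (LDH or WST-1) get 0; others get +1 for less and -1 for more cisplatin killing; genes are active when the two siRNAs give the same sign, summing to ±2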
Meaning of the calls: active = both siRNAs shift cisplatin killing the same way; inactive = no consistent shift, or siRNA harmful alone

no.	target gene	two-siRNA summed score (-2 to +2)	mean protection from cisplatin (shift in death) (%)	protection from cisplatin (shift in death), siRNA C (%)	call
1	NETO2 (neuropilin and tolloid like 2)	0	-2.1	-5.3	inactive
2	LOC441925	0	20.7	6.4	inactive
3	CELSR1 (cadherin EGF LAG seven-pass G-type receptor 1)	2	18.6	22.8	active
4	SMYD1 (SET and MYND domain containing 1)	-1	-9	-0.7	inactive
5	LOC440858	1	16.5	20.4	inactive
6	LOC389341	0	6.1	22.4	inactive
7	PDCD6IP (programmed cell death 6 interacting protein)	-1	-7	7.1	inactive
8	EPHB6 (EPH receptor B6)	0	-14.2	-12	inactive
9	CRISP2 (cysteine rich secretory protein 2)	0	2.2	4.9	inactive
10	MRAS (muscle RAS oncogene homolog)	0	2.6	5.5	inactive
11	ENOX2 (ecto-NOX disulfide-thiol exchanger 2)	0	7.4	20.1	inactive
12	SPATA7 (spermatogenesis associated 7)	1	17.1	22.2	inactive
13	HEXIM1 (HEXIM P-TEFb complex subunit 1)	0	4.7	11.5	inactive
14	BCL2L10 (BCL2 like 10)	0	-4.7	1.3	inactive
15	ZNF721 (zinc finger protein 721)	0	3.3	-1	inactive
16	DNMT3B (DNA methyltransferase 3 beta)	0	2.1	13	inactive
17	LOC400576 (retired record)	0	1.4	5.1	inactive
18	BANK1 (B cell scaffold protein with ankyrin repeats 1)	0	1.8	-5	inactive
19	LOC132706	0	-3.4	-7.9	inactive
20	GNRHR2 (gonadotropin releasing hormone receptor 2 (pseudogene))	0	-4.2	-7.6	inactive
21	SPTB (spectrin beta, erythrocytic)	0	4.4	0.6	inactive
22	CSTF3 (cleavage stimulation factor subunit 3)	-1	-16	-27.2	inactive
23	ITGA1 (integrin subunit alpha 1)	0	1.8	4.6	inactive

A stretch taken from the entries so far, for reference:
no.	target gene	two-siRNA summed score (-2 to +2)	mean protection from cisplatin (shift in death) (%)	protection from cisplatin (shift in death), siRNA C (%)	call
6	LOC389341	0	6.1	22.4	inactive
7	PDCD6IP (programmed cell death 6 interacting protein)	-1	-7	7.1	inactive
8	EPHB6 (EPH receptor B6)	0	-14.2	-12	inactive
